Laboratory results reported in publication PMC8449257.
These are yes or no findings as the source states them, for the method shown. Some entries that bind do so weakly or less than the wild type.

Columns and labels:
[1] = target: T1, PAT-4 (integrin linked kinase; ILK), full length (C. elegans) (UniProt Q9TZC4); test: two-hybrid; yeast PJ69-4A; UNC-112 forms as prey (pGAD-C3 or pACT-Q), PAT-4 or UNC-112C as bait (pGBDU); read-out is growth on His- (2 mM 3-amino-1,2,4-triazole in the screen) and Ade- plates
T1 sequence: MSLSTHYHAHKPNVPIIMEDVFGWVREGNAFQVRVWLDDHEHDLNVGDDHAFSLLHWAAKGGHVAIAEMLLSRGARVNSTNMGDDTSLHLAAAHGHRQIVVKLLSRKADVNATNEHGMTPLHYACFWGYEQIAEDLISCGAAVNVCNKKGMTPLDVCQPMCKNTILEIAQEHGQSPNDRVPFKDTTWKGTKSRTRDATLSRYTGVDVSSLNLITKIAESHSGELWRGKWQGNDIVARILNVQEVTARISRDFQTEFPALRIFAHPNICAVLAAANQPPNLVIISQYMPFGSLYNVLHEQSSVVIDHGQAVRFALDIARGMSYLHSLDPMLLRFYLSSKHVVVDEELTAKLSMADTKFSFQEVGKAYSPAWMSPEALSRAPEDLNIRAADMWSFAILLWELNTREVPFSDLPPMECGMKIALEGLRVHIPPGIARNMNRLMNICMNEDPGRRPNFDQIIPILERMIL

[2] = target: T2, UNC-112 C-terminal half (397-720 aa) (C. elegans) (UniProt Q18685); test: as above
T2 sequence: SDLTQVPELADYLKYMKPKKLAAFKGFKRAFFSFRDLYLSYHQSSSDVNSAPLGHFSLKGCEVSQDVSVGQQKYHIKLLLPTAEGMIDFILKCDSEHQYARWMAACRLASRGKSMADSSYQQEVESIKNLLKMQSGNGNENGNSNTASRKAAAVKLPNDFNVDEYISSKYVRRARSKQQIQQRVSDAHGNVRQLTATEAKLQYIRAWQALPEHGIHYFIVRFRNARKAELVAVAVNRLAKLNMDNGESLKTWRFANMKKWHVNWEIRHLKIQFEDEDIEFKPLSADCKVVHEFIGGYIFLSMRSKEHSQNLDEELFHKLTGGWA

B1: UNC-112 (kindlin), wild type (protein, UniProt Q18685 1-720)
chain: MAHLVEGTSIIDGKWQLPILVTDLNIQRSISVLGNLNVGGLMLELVSECDVERDWSDHALWWPEKRRWLQHTRSTLDQNGITAETQLEFTPMHKEARIQLPDMQMIDARVDFSVNSFKATKKLCRDLGIRYSEELSLKRYIPPEDLRRGTSDADNMNGPLSMRPGEESVGPMTLRKAAPIFASQSNLDMRRRGQSPALSQSGHIFNAHEMGTLPRHGTLPRGVSPSPGAYNDTMRRTPIMPSISFSEGLENEQFDDALIHSPRLAPSRDTPVFRPQNYVEKAAINRGWLDSSRSLMEQGIFEGDIILLRFKFMNFFDLNPKYDPVRINQLYEQAKWSILLDEFDHTEEEATLFAALQLQATLQRDSPEPEENNKDDVDILLDELEQNLDAAALNRRSDLTQVPELADYLKYMKPKKLAAFKGFKRAFFSFRDLYLSYHQSSSDVNSAPLGHFSLKGCEVSQDVSVGQQKYHIKLLLPTAEGMIDFILKCDSEHQYARWMAACRLASRGKSMADSSYQQEVESIKNLLKMQSGNGNENGNSNTASRKAAAVKLPNDFNVDEYISSKYVRRARSKQQIQQRVSDAHGNVRQLTATEAKLQYIRAWQALPEHGIHYFIVRFRNARKAELVAVAVNRLAKLNMDNGESLKTWRFANMKKWHVNWEIRHLKIQFEDEDIEFKPLSADCKVVHEFIGGYIFLSMRSKEHSQNLDEELFHKLTGGWA
B1 was tested, and the binding [1] was “binds”.

B2: UNC-112 N-terminal half (1-396 aa) with E302G (domain or fragment, UniProt Q18685 1-396)
chain: MAHLVEGTSIIDGKWQLPILVTDLNIQRSISVLGNLNVGGLMLELVSECDVERDWSDHALWWPEKRRWLQHTRSTLDQNGITAETQLEFTPMHKEARIQLPDMQMIDARVDFSVNSFKATKKLCRDLGIRYSEELSLKRYIPPEDLRRGTSDADNMNGPLSMRPGEESVGPMTLRKAAPIFASQSNLDMRRRGQSPALSQSGHIFNAHEMGTLPRHGTLPRGVSPSPGAYNDTMRRTPIMPSISFSEGLENEQFDDALIHSPRLAPSRDTPVFRPQNYVEKAAINRGWLDSSRSLMEQGIFGGDIILLRFKFMNFFDLNPKYDPVRINQLYEQAKWSILLDEFDHTEEEATLFAALQLQATLQRDSPEPEENNKDDVDILLDELEQNLDAAALNRR
With B2 the binding [1] was “no binding” and the binding [2] was “binds”.

B3: UNC-112 E302G (full length) (protein, UniProt Q18685 1-720)
chain: MAHLVEGTSIIDGKWQLPILVTDLNIQRSISVLGNLNVGGLMLELVSECDVERDWSDHALWWPEKRRWLQHTRSTLDQNGITAETQLEFTPMHKEARIQLPDMQMIDARVDFSVNSFKATKKLCRDLGIRYSEELSLKRYIPPEDLRRGTSDADNMNGPLSMRPGEESVGPMTLRKAAPIFASQSNLDMRRRGQSPALSQSGHIFNAHEMGTLPRHGTLPRGVSPSPGAYNDTMRRTPIMPSISFSEGLENEQFDDALIHSPRLAPSRDTPVFRPQNYVEKAAINRGWLDSSRSLMEQGIFGGDIILLRFKFMNFFDLNPKYDPVRINQLYEQAKWSILLDEFDHTEEEATLFAALQLQATLQRDSPEPEENNKDDVDILLDELEQNLDAAALNRRSDLTQVPELADYLKYMKPKKLAAFKGFKRAFFSFRDLYLSYHQSSSDVNSAPLGHFSLKGCEVSQDVSVGQQKYHIKLLLPTAEGMIDFILKCDSEHQYARWMAACRLASRGKSMADSSYQQEVESIKNLLKMQSGNGNENGNSNTASRKAAAVKLPNDFNVDEYISSKYVRRARSKQQIQQRVSDAHGNVRQLTATEAKLQYIRAWQALPEHGIHYFIVRFRNARKAELVAVAVNRLAKLNMDNGESLKTWRFANMKKWHVNWEIRHLKIQFEDEDIEFKPLSADCKVVHEFIGGYIFLSMRSKEHSQNLDEELFHKLTGGWA
In the case of B3, the binding [1] is reported as “no binding”.
